These results are taken from PMC7771250 (ACS Infectious Diseases, 2020).

Assay [1] deals with SARS-CoV-2. As to conditions: cited from earlier work.
For assay [2], the system named is SARS-CoV-2 spike pseudotyped particle (PP). Kind of assay: microbe, parasite or virus in culture. It counts as cell-based. As to conditions: Severe acute respiratory syndrome coronavirus 2, HEK-293T, 48 h, read-out: PP EC50.

Usually EC50 stands for the concentration at which the effect is half-maximal. With `CN(C)CCCN1c2ccccc2CCc2ccc(Cl)cc21` [clomipramine], the EC50 in assay [1] was 5.93 µM; in assay [2], 8.28 ± 0.46 µM.
